“And” between values parts separate entries of the source, which are not always exact repeats. Equal values may be shown once. Some of the results follow. Further columns of the screen follow, without active or inactive calls. Compounds called inactive in the main read-out are mostly missing here. Words in brackets tell the shape of the fitted curve; partial curves, single points and poor fits give uncertain potencies.
Assay: qHTS Assay for Modulators of Lamin A Splicing
Conditions: HeLa LMNA splicing GFP/RFP minigene ratio, 48 h
Method in brief: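 S3 HeLa cells stably expressing lamin A-EGFP splicing minigene plus DsRed2, 600 cells/well, 48 h compound exposure at 37C. Laser-scanning cytometry; analysed as GFP (500-530 nm)/RFP (575-640 nm) total intensity ratio; 0.5% DMSO vehicle.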

[1] = measured here: GFP splicing reporter channel
[2] = measured here: RFP viability control channel

In the case of `Fc1ccc(C(c2ccc(F)cc2)N2CCN(C/C=C/c3ccccc3)CC2)cc1`, the AC50 [1] is reported as 3.55 nM [falling, full curve, poor fit] and 17.8 µM [falling, single point] and the AC50 [2] is reported as 3.16 nM [falling, full curve, poor fit] and 22.4 µM [falling, partial curve] and 22.4 µM [rising, single point].

In the case of `COc1cc(Cl)c(S(=O)(=O)NCc2cccnc2)cc1Cl`, the AC50 [1] is reported as 31.6 µM [rising, single point].

With `O=[N+]([O-])c1ccc(-c2ccc(S(=O)(=O)NCCN3CCCC3)cc2)cc1` the AC50 [2] was 35.5 µM [rising, single point].

For `COc1ccc(-c2nc(-c3ccc(NC(=O)c4ccncc4)cc3)no2)cc1OC`, the AC50 [1] was 22.4 µM [rising, single point] and the AC50 [2] was 22.4 µM [rising, single point].

For `O=C(c1cnn2c(C(F)(F)F)cc(-c3ccccc3)nc12)N1CCCCC1c1cccnc1` (stereo not drawn), the AC50 [1] was 35.5 µM [falling, single point] and the AC50 [2] was 35.5 µM [falling, single point].

With `Cc1ccccc1Nc1nnc(SCC(=O)NCc2ccco2)s1` the AC50 [1] was 0.0631 µM [rising, full curve, poor fit].

With `O=C(Nc1ccc(Cl)c(Cl)c1)c1cccc(S(=O)(=O)NCc2cccnc2)c1` the AC50 [2] was 7.08 µM [rising, full curve].

For `Cc1ccc(OCCN2CCN(CC(O)Cn3c4ccccc4c4ccccc43)CC2)cc1` (stereo not drawn), the AC50 [1] was 35.5 µM [falling, single point] and the AC50 [2] was 22.4 µM [falling, single point].

In the case of `CC(C)c1nc2oc3c(=O)[nH]cnc3c2c2c1CCC2`, the AC50 [1] is reported as 11.2 µM [falling, partial curve] and the AC50 [2] is reported as 35.5 µM [falling, single point].

For `CCN=C(Nc1ccc2c(c1)OCO2)SC1CC(=O)N(c2ccccc2F)C1=O` (stereo not drawn), the AC50 [2] was 12.6 µM [rising, partial curve].

In the case of `O=c1cc(N2CCCCC2)c(-c2ccccc2)nn1Cc1ccccc1Cl`, the AC50 [1] is reported as 20 µM [falling, partial curve, poor fit] and the AC50 [2] is reported as 12.6 µM [falling, partial curve].

For `Cc1nn(C)c(Oc2ccccc2)c1CCNS(=O)(=O)c1ccc(Cl)cc1`, the AC50 [2] was 35.5 µM [rising, single point].

For `Clc1ccc(-n2ncc3c(NCC4CCCO4)ncnc32)cc1` (stereo not drawn), the AC50 [2] was 35.5 µM [rising, single point].

With `CCOC(=O)c1c(C)c(C)n(Cc2ccc(OC)c(OC)c2)c1C` the AC50 [1] was 35.5 µM [rising, single point] and the AC50 [2] was 20 µM [rising, partial curve].

In the case of `O=C(NCCc1c[nH]c2ccccc12)C(=O)NCC1OCCCN1S(=O)(=O)c1cc(F)ccc1F` (stereo not drawn), the AC50 [1] is reported as 25.1 µM [falling, single point].

In the case of `COc1ccc(/C=N/N=C2/NC(=O)C(CC(=O)O)S2)cc1OS(=O)(=O)c1ccccc1` (stereo not drawn), the AC50 [1] is reported as 0.158 µM [falling, full curve, poor fit].

In the case of `CCOC(=O)CC(=O)Nc1nnc(C(C)C)s1`, the AC50 [2] is reported as 5.62 µM [falling, partial curve].

In the case of `O=C1C=C(NCCOC23CC4CC(CC(C4)C2)C3)C2(CCCCC2)O1`, the AC50 [2] is reported as 10 µM [falling, partial curve].

With `Cc1ccc(NC(=O)COC(=O)c2cccnc2)cc1` the AC50 [1] was 0.0282 µM [rising, full curve].

With `N#C/C(=C\c1ccc(N2CCCCC2)o1)C(=O)Nc1cccc(Br)c1` the AC50 [1] was 0.00708 µM [falling, full curve, poor fit] and the AC50 [2] was 3.98 µM [falling, full curve].

In the case of `Cc1ccc(C)n1-c1ccc2c(c1)COC2=O`, the AC50 [2] is reported as 35.5 µM [falling, single point].

In the case of `O=C1CCCc2nc(N3CCN(C(c4ccccc4)c4ccccc4)CC3)ncc21`, the AC50 [1] is reported as 25.1 µM [rising, single point] and the AC50 [2] is reported as 17.8 µM [rising, partial curve].

With `Cc1cc(C(=O)CN2C(=O)NC3(CCCc4sccc43)C2=O)c(C)n1-c1ccccc1` (stereo not drawn) the AC50 [1] was 14.1 µM [rising, single point] and the AC50 [2] was 15.8 µM [rising, single point].

For `CC(=O)NC1=NC(=O)/C(=C/c2cn(C(C)=O)nc2-c2ccccc2)S1`, the AC50 [1] was 35.5 µM [falling, single point].

With `CCc1ccccc1NC(=O)Cn1nnc(C(=O)Nc2ccc(OC)c(OC)c2)c1N` the AC50 [1] was 1.26 µM [falling, partial curve, poor fit] and the AC50 [2] was 2 µM [falling, partial curve].

In the case of `CCOC(=O)CC(C)(C)/C(C)=N/Nc1ccc([N+](=O)[O-])cc1[N+](=O)[O-]`, the AC50 [2] is reported as 31.6 µM [rising, single point].

In the case of `CCOC(=O)c1c(NC(=O)c2nn(C)cc2[N+](=O)[O-])sc(C)c1C`, the AC50 [2] is reported as 35.5 µM [falling, single point].

For `COc1ccccc1C(=O)Nc1onc(C)c1C#N`, the AC50 [2] was 0.0282 µM [falling, full curve, poor fit].

With `O=S(=O)(c1ccccc1)N1CCN=C1SCc1ccc(Cl)c(Cl)c1` the AC50 [1] was 22.4 µM [rising, single point] and the AC50 [2] was 14.1 µM [rising, partial curve].

For `CC(C)Cn1c(Br)nc2c1c(=O)n(CCC#N)c(=O)n2C`, the AC50 [2] was 35.5 µM [rising, single point].

For `C[C@@H](C(=O)NCc1ccccc1)[C@@H]1C[C@@]1(C)[C@@H](NC(=O)OCc1ccccc1)c1ccccc1`, the AC50 [2] was 12.6 µM [rising, partial curve, poor fit].

For `Cc1ccccc1NC(=O)c1ccc(F)c(S(=O)(=O)N2CCc3ccccc3C2)c1`, the AC50 [1] was 15.8 µM [rising, partial curve].

In the case of `Cc1cc(C)c(S(=O)(=O)N2CCC(N3CCN(Cc4ccc(F)cc4)C(=O)C3=O)CC2)c(C)c1`, the AC50 [2] is reported as 35.5 µM [falling, partial curve, poor fit].

For `Cc1ccc(NC(=O)CCNS(=O)(=O)c2ccc3c(c2)CCN3C(=O)C2CC2)c(Cl)c1`, the AC50 [1] was 0.141 µM [rising, full curve, poor fit] and the AC50 [2] was 0.141 µM [rising, full curve, poor fit].

For `CCOC(=O)c1cn(-c2c(Cl)cccc2Cl)c2cc(Cl)c([N+](=O)[O-])cc2c1=O`, the AC50 [2] was 1 µM [falling, full curve, poor fit].

With `CCc1nnc(NC(=O)c2cccc(C(=O)Nc3nnc(CC)s3)n2)s1` the AC50 [2] was 0.794 µM [rising, full curve].

For `O=S(=O)(Nc1cccc(S(=O)(=O)N2CCOCC2)c1)c1ccc(Cl)s1`, the AC50 [2] was 35.5 µM [falling, single point].

With `Cc1nnc(SCC(=O)Nc2cc(C(C)(C)C)nn2-c2ccccc2)s1` the AC50 [2] was 35.5 µM [rising, single point].

In the case of `O=C1CS/C(=N/N=C/c2ccccc2OS(=O)(=O)c2ccccc2)N1`, the AC50 [1] is reported as 17.8 µM [rising, single point] and the AC50 [2] is reported as 17.8 µM [rising, single point].

With `O=C1CCCN1CCCNC(=S)Nc1ccc(F)cc1` the AC50 [1] was 0.141 µM [rising, full curve, poor fit].

With `O=C(Cn1c(N2CCN(C/C=C/c3ccccc3)CC2)nc2ccccc21)c1ccccc1` the AC50 [2] was 35.5 µM [rising, single point].

With `Cc1ccc(S(=O)(=O)N2CCC(=O)N(C(COCc3cccc(C)c3)Cc3ccccc3)CC2)cc1` (stereo not drawn) the AC50 [1] was 8.91 µM [rising, partial curve, poor fit] and the AC50 [2] was 17.8 µM [rising, partial curve].

In the case of `CN(C)c1ccc(C(CNS(=O)(=O)c2ccc(F)cc2)N2CCCC2)cc1` (stereo not drawn), the AC50 [2] is reported as 3.55 µM [rising, partial curve, poor fit].

In the case of `Clc1ccc(-c2nnc(Sc3nc4ccccc4o3)c3ccccc23)cc1`, the AC50 [2] is reported as 11.2 µM [falling, partial curve].

In the case of `Cc1ccc(C2=Nc3ccccc3N(C(=O)c3ccccc3)C(C)C2)cc1` (stereo not drawn), the AC50 [1] is reported as 10 µM [rising, partial curve] and the AC50 [2] is reported as 8.91 µM [rising, partial curve].

In the case of `CCCOc1ccc(CC(CC(=O)O)(C(=O)O)C(=O)O)cc1`, the AC50 [2] is reported as 5.62 µM [rising, single point].

For `Cc1onc(-c2ccccc2)c1C(=O)c1c[nH]c(C(=O)NCCCN2CCOCC2)c1`, the AC50 [1] was 35.5 µM [rising, partial curve, poor fit].

With `CCCCNC(=S)N(C)/N=C/c1c(F)cccc1F` the AC50 [1] was 11.2 µM [rising, single point].

For `O=C(OCc1ccccc1)c1ccc2c(c1)-c1ccccc1C2=O`, the AC50 [2] was 12.6 µM [rising, partial curve].

In the case of `CCOc1ccc(S(=O)(=O)N2CCc3ccccc3C2)cc1`, the AC50 [1] is reported as 12.6 µM [rising, single point].

In the case of `COc1ccc(Cl)cc1NC(=O)CNc1ccccc1N1CCOCC1`, the AC50 [1] is reported as 7.08 µM [rising, full curve, poor fit] and the AC50 [2] is reported as 20 µM [rising, partial curve].

With `CC(O)/C=C/c1ccc2ccccc2n1` (stereo not drawn) the AC50 [1] was 10 µM [falling, partial curve].

With `O=C(Cc1coc2ccc3ccccc3c12)N1CCc2ccccc21` the AC50 [1] was 12.6 µM [rising, single point] and the AC50 [2] was 12.6 µM [rising, single point].

With `Cc1nn(C2CCS(=O)(=O)C2)c(Cl)c1/C=C/C(=O)OCC(=O)c1c[nH]c2ccccc12` (stereo not drawn) the AC50 [1] was 7.08 µM [rising, full curve] and the AC50 [2] was 11.2 µM [rising, partial curve].
